The data set deals with T1, Clr (Sinorhizobium meliloti) (UniProt Q92SD2).
T1 sequence (looked up): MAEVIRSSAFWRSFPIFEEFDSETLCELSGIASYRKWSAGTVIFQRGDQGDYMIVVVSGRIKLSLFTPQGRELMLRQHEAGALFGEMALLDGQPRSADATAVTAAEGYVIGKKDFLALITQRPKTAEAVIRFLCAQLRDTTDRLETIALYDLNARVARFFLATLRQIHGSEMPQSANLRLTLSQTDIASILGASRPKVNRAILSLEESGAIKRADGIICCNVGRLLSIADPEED
Nature of the data set: EMSA. The following applies: 1 mM cAMP, EMSA: 2 mM HEPES pH 7.0, 30 mM NaCl, 50 mM KCl, 850 ng salmon sperm DNA, 1 ug BSA, 20 ng Cy3-DNA, 3 ug Clr in 10 uL, room temperature, recombinant protein, residues 1-234, protein details: C-terminal His6 (pET36b, NdeI/XhoI), label: 5'-Cy3 on reverse strand. For orientation: A gel shift assay detects complexes by their altered migration in electrophoresis.

No signal at the amounts used counts as a negative. Where a protein sequence is shown, tags need not be part of it. Weaker means in comparison with the reference protein, sequence or condition of that experiment.

For the sequence “AGCGGATAACAATTTCACACAGGAAACAGCATATGACCATGATTACGCCAAGCTCGAAATTAACCCTCACTAAAGGGAACAAAAGCTGGAGCTCTTAAGCTTAATACGGGGGTCTGGTAAGCCTCGCACAACTGCCACCGGCTAATCGTCAGCCGTCGCCGGCTCTGCCGAGCGGCGCGGCACTGGCCGGAGCAAGAGGATCAATAGAACAGCGGATGATCTTCAGGCCCGGCTATTGCCGGGCCTTCGCTTATATTTTGCGAAGCTGAAATAGGTTGGTGCAGGTTTACAAAACACGCGGCGTTCATTACCTTGCCGCGCAGACGTTGAAACGGGGCTCTGCTTCGTCGTCACTTGCGGGGATAGCCCTATACTTGCCTGACCTTTCCCGTGGGGAGCCTAGCGCCCTCCGCATGAAATTGTTGTGCCGTTCCGGACAGTATTCGGAACCGGGACGTGTTGTGTGCGCGGTGCAAGGCCACCCGCATGCACGGAGAGCGGGGAAAAGGCGTTGCAACATCTGGAACCAGGATACAGGTCTAGACTGCAGATGGTGAGCAAGGGCGAGGAGCTGTTCA (double strand) [SMc00291]”, the binding result was “binds more weakly”.
“AGCGGATAACAATTTCACACAGGAAACAGCATATGACCATGATTACGCCAAGCTCGAAATTAACCCTCACTAAAGGGAACAAAAGCTGGAGCTCTTAAGCTTACGATCGGCTACGGCGTTTCCTCCGGCTGTATCCGCATGCGCAACGAGGATGTGGTCGATCTTTATGAGAGGGTGAAGGTCGGCACAAAAGTCATCGTGATATAGCGACTATGGATGCACAATACTTCTTCCGCGTTTTCTCTCTTCAACTCCCAAAAACGTGGTTTTGAAGCAACAGATGTTCCCTCAGATACAAGTCTTACCGAAATCGCCGCACTATAGAATGTATCGCGGGCGTCCACTTGCGGTTAAATCGCGTGGCTTGCTTGCAACGAGGGTTCAGAGGGAATCGTAAATGAGACGTCATGTCACGGGGATGTCTAGACTGCAGATGGTGAGCAAGGGCGAGGAGCTGTTCA (double strand) [SMc00925]”: the binding result is “binds”.
The same measure for “AGCGGATAACAATTTCACACAGGAAACAGCATATGACCATGATTACGCCAAGCTCGAAATTAACCCTCACTAAAGGGAACAAAAGCTGGAGCTCTTAAGCTTATTGTTGTTGCCTGACCCGCCTGACCCACCTGAACTTCCCATCGCAGTTCTCCAATCCAGTAACGTTTCTACCTCTGATAGGTCGCAATCCATTCAAACGTTAGCAAAATGCAGTACGACCAAATAAATCACGTAGTTGATTATGGCATAGATGAGAAGGGTAACCCATTTTGGCGGAGATAACCCTGCAATTTTTATAATATAATCCACGATTGTCATCGACAAAAACACAATAATGGCGGCAATTATAGGGTATAAACTCATCTAGATCCCCGATAGCAGAGCTATAGCGTCTCCTATCTCAGCATAAAGACGCTGATGGTCAATAAACAATATATTGTACTTTTTGGTTGAGGAGTCAAATTGATTCTGGTATCAGGGATAATTGCGGGAGACGATCTTCGAGTGTGGTGGGGGATACTTACGAAGTGGTGGATAATCTCCGATTAGCACCTCTTTCGACTAGACTGCAGATGGTGAGCAAGGGCGAGGAGCTGTTCA (double strand) [SMc02661]”: “no binding”; for “AGCGGATAACAATTTCACACAGGAAACAGCATATGACCATGATTACGCCAAGCTCGAAATTAACCCTCACTAAAGGGAACAAAAGCTGGAGCTCTTAAGCTTCAATGCCTGCACGAGTACATCGAGATGCCCGTTGGTGATCGGATCGAAGGAGCCGGGATAGAAAGCCGTGGTCATCGCGCCTGTTTCCGTTTGGTGAAGCCTTTTGTCACGGACGGCCGCGGACCGCAAGGGTTGTACGATCCTTGCGCCCTGTTCCCCGGGAAACAGCGGCGGCAAAAGGCTGAATGCTAGATGAATGCAACGTTCAAGAGGGTTTCACACTGCAAGCCGTAACGTGAACCCAAGTTAACGGGAACTTTTTTGAGTACATGCCGTTTAAACCGACGAAAGGAGACGGCCATGGGACTTGCTCTATCTAGACTGCAGATGGTGAGCAAGGGCGAGGAGCTGTTCA (double strand) [coaD / SMc06520]”: “binds”; for “AGCGGATAACAATTTCACACAGGAAACAGCATATGACCATGATTACGCCAAGCTCGAAATTAACCCTCACTAAAGGGAACAAAAGCTGGAGCTCTTAAGCTTCGAAATCACGCGCCAAACCGAGTTTCTGCAGCGACTTTTGCGCGCCTCCAAAGTCGTGGGTGCGCTACAAAGCACATCGTTCATTCTACCGAATGCGAAAAGGCAGAATATGTTCCACGCCCCTCGCGACCCATATATGGGCAACACTCAATCAGAAGGCGCAGTTTCCTTCGAAGCCCGGTCTTCATTTTCCGAGTTGTCACATCCGGAACAGCGAGGCCGCGTGAAAGGCCCTTTTATCTAGATGTTCTCATATGGGTGAGATCATGCTAATTTTCTCGTTTCTCGGAGGGGAAACCGATGCCACGTATTACTAGACTGCAGATGGTGAGCAAGGGCGAGGAGCTGTTCA (double strand) [SMc04190]”: “binds”.
Consider “AGCGGATAACAATTTCACACAGGAAACAGCATATGACCATGATTACGCCAAGCTCGAAATTAACCCTCACTAAAGGGAACAAAAGCTGGAGCTCTTAAGCTTCGCAATCGTGAAGCCAAGGGCATGCGCCTTGCCCATGAAACCCGTCCCGATCAGGCCAATGCCCAGCCTGCGCTTGCCGCTCATCTCGTTTCTCCCGGGCCAGGCCCTCGTCTGTGCTCGGCGAAATGAAATGAAATGCGCGGGAATTGTCAATATGGAATATTTGTTCGAAAATCTGGTCCGCGTGCCTGATGGAACAGAGCGTACCCGCTCGGCCCGCTATGCTTGGGGAAGAATGTGTTAACGCATTTTTACCATGTTGCGTTGAAACATCACTGGTGACGGTGGTGGACGAATCGCTTTCATATGGTGGGGCGAAATCGGAGTGATCGAGCATGTGCCGTTGGGCAGCCTATTCTAGACTGCAGATGGTGAGCAAGGGCGAGGAGCTGTTCA (double strand) [SMc01162 / SMc01163]”, for which the binding result is reported as “binds more weakly”.
For “AGCGGATAACAATTTCACACAGGAAACAGCATATGACCATGATTACGCCAAGCTCGAAATTAACCCTCACTAAAGGGAACAAAAGCTGGAGCTCTTAAGCTTGGTCAGCCCTTGTATCGGTCGAAAGACGTGTGCCGCAACGTTCCTGTGGGACGCCGACAAGGGGCCGCCGCTCTTCACGCCCAGCGACATAGGTAACAGAAGGCAGTCGCTTCATCCTGCCGTTCCCCGATGGGGTAAACGCGCGCCCTAGAGTTCCGCGAGGAACAGCCAAAACCAATCAGACATGGGATAATAACGGCCATTAGTGCAACTGATACTATGTGATAGCCAGATTAAAAAGTGCCTTCTCTTTTAAACAAAGATTTACTGGAGGGATACTCATATGGCACTAGACTGCAGATGGTGAGCAAGGGCGAGGAGCTGTTCA (double strand) [SMb20905 / SMb20906]” the value was “binds”; for “AGCGGATAACAATTTCACACAGGAAACAGCATATGACCATGATTACGCCAAGCTCGAAATTAACCCTCACTAAAGGGAACAAAAGCTGGAGCTCTTAAGCTTTACCGCGATCGCACTCCGATCACGGCACCCGCTCGCTTCGCGTGGGGCTGTCCGCATCCAGCCCACGATCGCCGATGCCCAAATCCTCCCGGTCGGACCGAGGCGATACCACGTGCAGAATGCCACAACGAGATAATAATTCAATTTGATTTATTTATTGACACGGTGGATTTTTGATGCTTGATTGACCATCGGAAGCGCCGTCTGCAGCTGAGGAGAATGCTGCAGCGGGTCCTGAAGCCGGCGCGCCGGCATTTTTCATCCTTGGGAGGATTTAATGAAGAAGACAGTTCTTTCTGCCGCATTCGGCTCTAGACTGCAGATGGTGAGCAAGGGCGAGGAGCTGTTCA (double strand) [frcB]”, “no binding”.
On to “AGCGGATAACAATTTCACACAGGAAACAGCATATGACCATGATTACGCCAAGCTCGAAATTAACCCTCACTAAAGGGAACAAAAGCTGGAGCTCTTAAGCTTTCGTCAGGACATAATCCTTGTCGAGAACCGCGCCGCCGATCGCCAGCCGTTCCTCGTCCCCGCCCTGCCGGCGGCGGACATTGCCGCGGATTTTCGCAGCCTTGCCCACGACCGGAGCTGCTGCCGTCGAACGGCCGCCCGATACGGTGGCAAGCAGCAGGCCGCCAAGAAAGATCCGTCTCCTCATCTCGAACTGCCGCATCGGCTTCTCCGCTGCGTTTCGCAGCGCTCCCTGTTCGGCCTCCGGCTCCTTACGAGGATAGACCGAGGCGTGCCCGATGCAAGACGCATCTTGGGGGCTGCTTCAACTCACCGTTTCATCGCCTTCACCGCTGTTTCCCGCGGAACAGATGCCGGGTCGGGGCGGCCCTAGGATGGTGTCGGTTAGAGGGAGAGCACCATGAAGAAACACGTTGGATCGAGCTCTAGACTGCAGATGGTGAGCAAGGGCGAGGAGCTGTTCA (double strand) [SMc02177 / SMc02178]”, for which the binding result is recorded as “binds”.
For “AGCGGATAACAATTTCACACAGGAAACAGCATATGACCATGATTACGCCAAGCTCGAAATTAACCCTCACTAAAGGGAACAAAAGCTGGAGCTCTTAAGCTTTTCTGAGAGCTCCTGGTGGTCTGCACGTTCCAGCTGATTTTCCCAGCATAGCTTCCACTGCACTTTTAAGGACATGTAAGAACTCCAGTGTGTTGTTTCTTCAAAGCACGATCGAGAGTGGTGTGTACCCGGCAAGTTACACCGGGGACGCCAACCGTAGCGCTGGACCGTTGGTCGAGCGCTTAGATGACGGCTCTAAATTCGGACCCATCCTGTACTTGTGAAACTTTTCTCGCGCCGCACCTTGATTCCATTAACTTCAGGGTTCTCTAATAGGACTCTGCAAGATTGGTAAAATTGATTGTTTGGATAACGATCATCTGCGATATGGATGCCGCACATGCGTTTTAGGGGCCTAGATCTAGACTGCAGATGGTGAGCAAGGGCGAGGAGCTGTTCA (double strand) [nodA / nodD1]” the value was “binds more weakly”.
